This is one part of the list.

This experiment has as its target T1, OsSMF1 (Oryza sativa, UniProt Q6ZLB0 1-436).
T1 sequence: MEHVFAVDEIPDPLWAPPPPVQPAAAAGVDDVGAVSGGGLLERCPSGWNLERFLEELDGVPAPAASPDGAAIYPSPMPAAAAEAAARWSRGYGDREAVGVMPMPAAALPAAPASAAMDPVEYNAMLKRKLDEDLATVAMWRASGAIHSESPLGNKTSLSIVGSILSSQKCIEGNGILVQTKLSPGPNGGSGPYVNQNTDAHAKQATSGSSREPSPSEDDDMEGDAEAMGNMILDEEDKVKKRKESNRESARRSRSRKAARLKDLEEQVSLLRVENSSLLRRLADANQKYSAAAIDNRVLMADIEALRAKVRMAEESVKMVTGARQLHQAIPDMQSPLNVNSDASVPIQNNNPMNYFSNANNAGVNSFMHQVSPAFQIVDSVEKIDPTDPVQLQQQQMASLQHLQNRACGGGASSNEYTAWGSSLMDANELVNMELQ
The experiment in a line: protein-binding microarray (RPBM); PBS, 2% BSA, 51.3 ng/ul salmon testes DNA, 50 uM zinc acetate, 200 nM TF, 25 C, 1 h; high values mean tight binding. To be noted: protein: recombinant; tags: N-terminal polyhistidine and DsRed monomer fusion (pET32a); chain copies: 2; label: CyDye5-dUTP incorporated in the synthesized complementary strand; 3' TTTTT single-stranded linker to array surface; dsDNA, one strand shown. The method in brief:
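Using Ni–NTA, transcription factors fused N-terminally to polyhistidine and DsRed were purified after expression in E. coli BL21-CodonPlus. These were incubated at 200 nM with a blocked, double-stranded custom Agilent array for 1 h at 25 °C in a buffer containing 50 µM zinc acetate, and the array was washed. The binding signal is per-feature fluorescence intensity (arbitrary units) on an Axon 4000B scanner.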
For the sequence “CGTGGAGGCGTGGATGCGGCGGTGCCAGCGCTGGCCTCGTCGGAGTCACCTAGTGCAG”, the binding signal was 3780 fluorescence intensity (a.u.).
As for “TCTATAGGTATTCATGTATGTGCACGTATACGTCTTTCATCGGAGTCACCTAGTGCAG”, the figure is 4850 fluorescence intensity (a.u.); as for “GGCCGGCCGCGGCGGGTGGTGGGGCAGGGCCTGACGACGACGGAGTCACCTAGTGCAG”, 3500 fluorescence intensity (a.u.).
Regarding “TCCGCTGGCCACGGCGGCGCCCGCGGCGTACTACCCGGTCCGGAGTCACCTAGTGCAG”, the binding signal is 3870 fluorescence intensity (a.u.).
The value for “AGCTGGAATCGTGCAGCGCCACGTGGAGGGGTTATTTGCACGGAGTCACCTAGTGCAG” was 8000 fluorescence intensity (a.u.).
The value for “GTATGAGCATCAGCATCAGATCATCATTGGAATCAAAGCACGGAGTCACCTAGTGCAG” was 4040 fluorescence intensity (a.u.); that for “ATATTAGGTATGACACGTATGTCCACATCAAATCTTCACGCGGAGTCACCTAGTGCAG” was 9210 fluorescence intensity (a.u.); that for “CCCGCCGCCGTGACGCTCACCTGTTGCTCGCACATCCATGCGGAGTCACCTAGTGCAG” was 3880 fluorescence intensity (a.u.).
“GCTCCCCATCTACGCGCCGCCAAGTGTAGTGATCCCCATCCGGAGTCACCTAGTGCAG”: the binding signal was 3340 fluorescence intensity (a.u.).
The value for “ATCATCCAATGGACGGTCCAGATCCACCGCATCCACGTATCGGAGTCACCTAGTGCAG” was 5690 fluorescence intensity (a.u.); that for “TATTGTACTAGGTGGGCTGAGCAAAGTCGAGTCAGCTACCCGGAGTCACCTAGTGCAG” was 5880 fluorescence intensity (a.u.).
For “CTTGCACAAGTACAGTACGTGTACATGCATGTATGCTACCCGGAGTCACCTAGTGCAG”, the binding signal is 5700 fluorescence intensity (a.u.).
The value for “CGTCGCCTCGTCGGCCGACGAGATCCGCGGCCGGCGGAGTCGGAGTCACCTAGTGCAG” was 32700 fluorescence intensity (a.u.); that for “TTGAGATATAATTGCTACGTAAGTGCCACGTCAATGCCACCGGAGTCACCTAGTGCAG” was 21400 fluorescence intensity (a.u.).
As to “CTGATGTGATGACGCCATTTCGCTGACGATTTGTGCCGTTCGGAGTCACCTAGTGCAG”, the binding signal is 6620 fluorescence intensity (a.u.).
The value for “GTAAAGAACGGACCCATACCCACGTACCCAATGGGTAAGACGGAGTCACCTAGTGCAG” was 3150 fluorescence intensity (a.u.).
The value for “CCCCGGCTTCCCCGCCGAACCCCTCCCGCCTATTCGTCCGCGGAGTCACCTAGTGCAG” was 3400 fluorescence intensity (a.u.); that for “GTTCAATTTGCTCTCTGACAACTACGTTTCGACAACTACACGGAGTCACCTAGTGCAG” was 3530 fluorescence intensity (a.u.); that for “CAAGGCTGATTTGTCACAACGCTATTGGCCACATAGAGATCGGAGTCACCTAGTGCAG” was 27600 fluorescence intensity (a.u.).
As to “TCATTAAATACCCAAAGCCTTATATATATATTCATCTAAACGGAGTCACCTAGTGCAG”, the binding signal was 33800 fluorescence intensity (a.u.).
With “ATTTGCTTCCGCCACGTGCCATATTTGGGTCTATACTGGCCGGAGTCACCTAGTGCAG”, the binding signal is 13000 fluorescence intensity (a.u.).
As for “AAGGACTGGGTGAAGCTCAGCCTTGAGCTGCCACCGCGGACGGAGTCACCTAGTGCAG”, the binding signal is 4570 fluorescence intensity (a.u.).
The value for “CAGAGTTCCGTTCTGAATTTCTGGTGAGTCATCTGCTGAACGGAGTCACCTAGTGCAG” was 8920 fluorescence intensity (a.u.); that for “TTACGCCGCGCTGCTACCACAGTGTAGTCCACCTCAGCTGCGGAGTCACCTAGTGCAG” was 5850 fluorescence intensity (a.u.).
The value for “GTCACCACTCACCACTCTGCTAAGGCGCGCGTCAGTCAACCGGAGTCACCTAGTGCAG” was 3420 fluorescence intensity (a.u.).
The value for “GCGCACACACACACACAGATATATATATATATATATATATCGGAGTCACCTAGTGCAG” was 4200 fluorescence intensity (a.u.).
Take “GTAAAATTCCTACCAACGCTTCTCAGCTGCCACGTGTACCCGGAGTCACCTAGTGCAG”: the binding signal is 24000 fluorescence intensity (a.u.).
The value for “GCGCAAGAACGGGATCACCCACGTGCTCAATTGTGTCGGCCGGAGTCACCTAGTGCAG” was 3850 fluorescence intensity (a.u.).
As for “TGAAGGATGTGATTAGGAGGAGTCATATCCCATGAATTTTCGGAGTCACCTAGTGCAG”, the figure is 3960 fluorescence intensity (a.u.); as for “CATCATATGCATATGTATGTCATATTATCATGACATGCGACGGAGTCACCTAGTGCAG”, 4700 fluorescence intensity (a.u.); as for “GCATACGTGCGTGACCGCGCCATGTGCAGTTTCCATCTTACGGAGTCACCTAGTGCAG”, 4110 fluorescence intensity (a.u.).
For “CCGCTCACATGTGACATGTCACAGCCTTATCTCTTTCTCCCGGAGTCACCTAGTGCAG”, the binding signal was 7590 fluorescence intensity (a.u.).
The value for “CCAACCTTCAGACCAGCGCCATAACTGCCTCACATCTCACCGGAGTCACCTAGTGCAG” was 3200 fluorescence intensity (a.u.); that for “CTTCTGGACTTATGGCCCATATACCAACTGAATTCAACAACGGAGTCACCTAGTGCAG” was 25100 fluorescence intensity (a.u.).
On to “AGCTGCAGCTCAAGCTGGAAGGCCACGAAGTGATTTTGTGCGGAGTCACCTAGTGCAG”, for which the binding signal was 3790 fluorescence intensity (a.u.).
As for “CTCATCACCGCCGCCCACGTCACCCTCTACGACTTCAACACGGAGTCACCTAGTGCAG”, the binding signal is 16700 fluorescence intensity (a.u.).
Take “TCCTACACAAAACATTTACACATTGTCACGTCGAACATTTCGGAGTCACCTAGTGCAG”: the binding signal is 3850 fluorescence intensity (a.u.).
As for “GCTAAGAGTGTGTTATAGCTAAAACGTGACTCAAAGTAGTCGGAGTCACCTAGTGCAG”, the figure is 3570 fluorescence intensity (a.u.); as for “GCCCAGAAGATCACATATCGTCTCCACGTGTGCGTCTGGTCGGAGTCACCTAGTGCAG”, 12800 fluorescence intensity (a.u.).
Take “CCGCGTCGCCCATTGTGACGAAGAGCCTCGTCGGCGTGGACGGAGTCACCTAGTGCAG”: the binding signal is 4410 fluorescence intensity (a.u.).
As for “CAAAGTCTCGTTTTACCGTGGTTTTGGCTACGTGGACGATCGGAGTCACCTAGTGCAG”, the figure is 4330 fluorescence intensity (a.u.); as for “ATCAGGCCTGAATTTATAGTGACACCACTGGCCCATGATGCGGAGTCACCTAGTGCAG”, 4010 fluorescence intensity (a.u.).
